Measurements from US12337053B2, “Method and composition for coloring a keratinous substrate using solubilized vat dyes” (Wella Germany GmbH, priority 2020, dated 2025).

Assay: Coloration of hair switches with solubilized vat dyes (general procedure), natural blond hair
Design: species or system human
Source text: The coloring method described in the following examples, which method uses solubilized vat dyes, comprises the steps of applying leuco vat dye sulfuric esters, hydrolyzing the leuco vat dye sulfuric esters to the leuco form, and actively oxidizing the leuco form to the respective insoluble pigment form of the vat dyes.
Penetration occurs under mild alkaline conditions at pH=9 in the presence of ammonia or other penetration enhancers such as urea. At this point in time it is important to keep the sulfuric ester structure intact to avoid any early oxidation of the solubilized vat dye as this will distract the penetration process and will lead to incomplete use of the applied dye amount which will result in an unsatisfactory color result. In order to prevent the solubilized vat dyes to start the oxidation at that point in time, sodium sulfite as reducing agent may be added to the coloring mixture. Addition of sodium meta bisulfite as described in U.S. Pat. No. 5,364,415 (Lewis et. al.), to lower the alkaline pH given by the addition of ammonia or urea down to pH=6 is not beneficial as it will hinder the solubilized vat dye to penetrate, and will decrease the swelling of the keratin fiber which needs mild alkaline conditions.
The alkaline dyeing solution is then treated with, for example, acetic acid, ascorbic acid, boric acid or citric acid to adjust the pH to mildly acidic, for example pH 3.0-3.5. This pH change will trigger hydrolysis of the sulfuric ester to yield the free vat acid (leuco form). This process typically will require no more than 10 min, after which time the solubilized vat dye esters are completely hydrolyzed. At that point in time the leuco form has reached the maximum sensitivity to oxidizers.
The hair is briefly rinsed with water to remove any excess remaining dye material from the surface of the hair. After that, any oxidizing procedure can be applied. This includes very gentle conditions using hydrogen peroxide solutions from 1-12% by volume. Common in the hair color industry are the following typical concentrations: 1.9, 6, 9 or 12% by volume. Hydrogen peroxide can be applied also together with bleaching agents such as sodium/potassium/ammonium persulfate or percarbonates. The oxidation to convert the leuco form to the vat dye pigments is typically completed within 20 min. Simultaneously lifting of the hair (oxidizers keep also oxidizing natural melanin in the hair) will be completed within the same time frame. […] A significant advantage is that any formulations can totally skip the use of organic solvents and alcohols such as ethanol or iso-propyl-alcohol.
2 g urea (penetration enhancer), 200 mg sodium sulfite (reducing agent) and 120 mg of the respective solubilized vat dye (color component) are dissolved in 15 ml water. This simple mixture is already sufficient to obtain the desired colorations on hair. In principal, all additional components which are a typical ingredients of an oxidative hair coloring system in addition to the above-mentioned components can be applied as well with no exception and without negative impact on the coloring result. This includes the following ingredient groups: coloring agents (solubilized vat dyes), penetration enhancers/alkalizers (e.g. ammonia, urea), reducing agents/radical scavengers (e.g. sodium sulfite etc.), chelating agents (e.g. EDTA, EDDS, editronic acid) etc.), fragrances, care components (e.g. hydrolyzed keratin, dimethicone, polyquaternium types etc.) texture ingredients (e.g. carbomer, cocoamide, hydroxyethyl cellulose etc.), medium reagents (e.g. cetearyl alcohol, lanolin alcohol, glycerin stearate etc.) and surfactants (e.g. laurylether sulfate, lauryl sulfo acetate etc.).
This aqueous solution is heated gently to 40° C. and 1-2 hair switches are placed in the coloring bath for 25-30 min. […]

[1] = Hydrogen peroxide 12% plus Blondor powder, ratio 1:1

O=S(=O)([O-])Oc1c2ccccc2c2ccc3c4ccc5c(OS(=O)(=O)[O-])c6c(Cl)c(Cl)ccc6c6ccc(c7ccc1c2c37)c4c56.[Na+].[Na+] [solubilized vat violet 1]
L a b value: L (Hydrogen peroxide 9%, pH = 9): L = 11.14
L a b value: L [1]: L = 10.36

COc1cc2c3ccccc3c(OS(=O)(=O)[O-])c3ccc4c5ccc6c(OS(=O)(=O)[O-])c7ccccc7c7cc(OC)c(c1c4c32)c5c67.[Na+].[Na+] [solubilized vat green 1]
L a b value: L (Hydrogen peroxide 9%, pH = 9): L = 31.82
L a b value: L [1]: L = 22.36

O=S(=O)([O-])Oc1c2ccccc2c2ccc3c(OS(=O)(=O)[O-])c4ccccc4c4ccc1c2c34.[Na+].[Na+] [solubilized vat yellow 4]
L a b value: L (Hydrogen peroxide 9%, pH = 9): L = 57.23
L a b value: L [1]: L = 55.69
